# Hit rate of the full screen: of about 140,000 compounds, about 4,300 (3.1%) were called active. The inconclusive results got no clear call from the source; some entries with a clear call stand among them for comparison.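 The calls were made as follows: active = readout at or below -70, meaning at least 70% loss of cells showing the perinucleolar compartment, a nuclear body marking cancer cells; inconclusive = readout between -30 and a set limit; inactive = the rest.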
# Assay: High Content Assay for Compounds that inhibit the Assembly of the Perinucleolar Compartment;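 also: plate controls were DMSO wells for no effect and camptothecin positive control wells for full effect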
# Conditions: PC3M PTB-GFP, PNC prevalence imaging, 16 h; at 10 µM; active compounds read low
# Outline: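 Compounds are pinned in duplicate onto adhered PC3M cells stably expressing GFP-tagged PTB and incubated 16 h at 37 C. Cells are then fixed, nuclei stained with Hoechst, and PNC-positive cells counted.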
row,Structure (SMILES),"activity change (PNC), negative = inhibition"
1,S=C(NCCN1CCOCC1)Nc1ccc(Cl)cc1,inconclusive: -49.3%
2,COc1ccc(/C(O)=C2\C(=O)C(=O)N(CCN(C)C)C2c2cc(OC)c(OC)c(OC)c2)c(C)c1 (stereo not given),inactive: 30.8%
3,O=C(NC1CCN(C(=O)NCc2ccccc2)CC1)c1ccco1,inconclusive: -50.4%
4,COc1cc(CNc2ccc3[nH]c(=O)[nH]c3c2)ccc1OCC(=O)NC(C)(C)C,inconclusive: -75.6%
5,COc1cc(OC)cc(C(=O)N2CCCc3ccccc32)c1,inconclusive: -35.3%
6,O=S1(=O)CC(N2CCCCC2)C(N2CCCCC2)C1 (stereo not given),inconclusive: -55.5%
7,CC1=C(C(=O)OCCOC(C)C)C(c2cc3c(cc2Br)OCO3)CC(=O)N1 (stereo not given),inconclusive: -48.9%
8,CCN(CC)S(=O)(=O)c1cc(NC(=O)CSc2nnc(-c3cccs3)o2)ccc1C,inactive: -1.25%
9,c1ccc(Nc2ccccn2)cc1,inconclusive: -77.9%
10,CC1CCN(C(=S)NC(=O)c2ccccc2)CC1,inactive: 8.26%
11,Cc1c(C(=O)Nc2ccccc2)oc2c1C(=O)CC(C)(C)C2,inconclusive: -34.1%
12,CCOC(=O)C1CCCN(Cc2nc(N)nc(Nc3ccccc3OC)n2)C1 (stereo not given),inconclusive: -31.9%
13,Cc1ccc(OC/C(O)=C(\C#N)c2nc3ccccc3s2)cc1,inconclusive: -44%
14,CCOC(=O)c1sc(NC(=O)c2ccccc2)cc1C,inactive: 17.3%
15,O=C(Cc1cccs1)Nc1nnc(SCc2cccc3ccccc23)s1,inconclusive: -42.8%
16,Nc1nnc(SCC(=O)Nc2ccc(S(=O)(=O)N3CCOCC3)cc2)s1,inconclusive: -66.6%
17,CCOC(=O)C1C(c2cccc(F)c2)NC(=S)NC1(O)C(F)(F)F (stereo not given),inconclusive: -64%
18,O=C(O)CCCC(=O)Nc1cccc(-c2nc3ccccc3[nH]2)c1,inconclusive: -37.5%
19,N#Cc1cc(Sc2ccccn2)c(Sc2ccccn2)cc1C#N,inactive: 7.85%
20,CN1C(=O)OC2(C)CCc3ccccc3C12C (stereo not given),inconclusive: -30.5%
21,COc1ccc(NS(=O)(=O)c2ccc(O)c(C(=O)OCC(=O)Nc3ccc4c(c3)OCCO4)c2)cc1,inactive: -7.83%
22,Cc1cc(C)nc(SCC(=O)Nc2cc(C)on2)n1,inconclusive: -32.1%
23,Cc1cc(NC(=O)Cc2cccs2)nn1CC(=O)NCc1ccco1,inconclusive: -40.3%

# Entries above with an NH in an aromatic ring, in the order listed:
row,Structure (SMILES),"activity change (PNC), negative = inhibition"
4,COc1cc(CNc2ccc3[nH]c(=O)[nH]c3c2)ccc1OCC(=O)NC(C)(C)C,inconclusive: -75.6%
18,O=C(O)CCCC(=O)Nc1cccc(-c2nc3ccccc3[nH]2)c1,inconclusive: -37.5%

# Remaining list, next part.

row,Structure (SMILES),"activity change (PNC), negative = inhibition"
1,CCCc1cc2c(=O)c(-c3ccc4c(c3)OCCO4)coc2cc1OS(C)(=O)=O,inconclusive: -37.4%
2,COC(=O)COc1cccc2c(=O)n(CC(=O)NCCc3ccc(OC)c(OC)c3)ccc12,inconclusive: -71.7%
3,CC(=O)c1ccc(N2CCN(C(=S)Nc3ccccc3F)CC2)cc1,inactive: 2.68%
4,COC(=O)CN(C)C1CC(=O)N(c2ccc(Cl)cc2)C1=O (stereo not given),inactive: 14.5%
5,CCOC(=O)N1CCC(N2CC34C=CC(O3)C(C(=O)Nc3ccc(F)cc3)C4C2=O)CC1 (stereo not given),inactive: 14.6%
6,O=C(CN1NS(=O)(=O)c2ccccc2C1=O)Nc1ccccc1OC(F)F,inactive: 6.04%
7,CCOC(=O)C1=C(Nc2cccc(Cl)c2)OCC1=O,inconclusive: -30.8%
8,O=C1OC(N2CCN(C/C=C/c3ccccc3)CC2)c2ccccc21 (stereo not given),active: -85.8%
9,O=C(Cn1c(=O)[nH]c2ccsc2c1=O)NC1CCCCCC1,active: -100%
10,Cc1c(C(=O)NC(=S)Nc2ccc3c4c(cccc24)CC3)cccc1[N+](=O)[O-],inconclusive: -31.1%
11,Brc1ccc(C2Nc3cccc4cccc(c34)N2)s1,inactive: -19.6%
12,O=C(O)/C=C\C(=O)Nc1ccccc1C#Cc1ccccc1,inactive: -27.2%
13,Cc1ccc(-c2nc(N)c3c(-c4ccc(C)cc4)nn(C(C)(C)C)c3n2)cc1,inconclusive: -32.3%
14,CCOC(=O)C1=C(C)OC(N)=C(C#N)C1c1ccsc1 (stereo not given),inactive: -18.2%
15,CN(Cc1ccccc1)C(=O)CCNS(=O)(=O)c1ccc2c(c1)oc(=O)n2C,inconclusive: -43.5%
16,CC1(C(=O)NC2CCCCCCC2)CCC(=O)N1Cc1cccs1 (stereo not given),inactive: 13.9%
17,CC1CCN(S(=O)(=O)c2ccc(S(=O)(=O)NCc3ccco3)cc2)CC1,active: -100%
18,COc1ccc(C(=O)NC(=O)COC(=O)c2ccc3ncsc3c2)cc1,inconclusive: -41.1%
19,Cc1ccc(C(=O)c2cc([N+](=O)[O-])ccc2N2CCOCC2)cc1,active: -95.6%
20,O=C(c1c(Cl)nc2sccn12)N1CCN(c2cccc(Cl)c2)CC1,inconclusive: -77.2%
21,COc1ccc(C2NC3=C(CCC3)C3(C#N)C4(N=C(N)C23C#N)OCCO4)cc1 (stereo not given),inconclusive: -68.3%
22,COc1ccccc1N1CCN(C(=O)C2c3ccccc3Oc3ccccc32)CC1,inconclusive: -72%

# Reference: PubChem BioAssay AID2417 (National Center for Advancing Translational Sciences (NCATS), 2010)
